The other results are listed elsewhere or left out.
The sequences below were run against T1, OsSMF1 (Oryza sativa, UniProt Q6ZLB0 1-436) (assay: protein-binding microarray (RPBM); PBS, 2% BSA, 51.3 ng/ul salmon testes DNA, 50 uM zinc acetate, 200 nM TF, 25 C, 1 h; high values mean tight binding). Conditions: protein: recombinant; tags: N-terminal polyhistidine and DsRed monomer fusion (pET32a); chain copies: 2; label: CyDye5-dUTP incorporated in the synthesized complementary strand; 3' TTTTT single-stranded linker to array surface; dsDNA, one strand shown.
T1 sequence: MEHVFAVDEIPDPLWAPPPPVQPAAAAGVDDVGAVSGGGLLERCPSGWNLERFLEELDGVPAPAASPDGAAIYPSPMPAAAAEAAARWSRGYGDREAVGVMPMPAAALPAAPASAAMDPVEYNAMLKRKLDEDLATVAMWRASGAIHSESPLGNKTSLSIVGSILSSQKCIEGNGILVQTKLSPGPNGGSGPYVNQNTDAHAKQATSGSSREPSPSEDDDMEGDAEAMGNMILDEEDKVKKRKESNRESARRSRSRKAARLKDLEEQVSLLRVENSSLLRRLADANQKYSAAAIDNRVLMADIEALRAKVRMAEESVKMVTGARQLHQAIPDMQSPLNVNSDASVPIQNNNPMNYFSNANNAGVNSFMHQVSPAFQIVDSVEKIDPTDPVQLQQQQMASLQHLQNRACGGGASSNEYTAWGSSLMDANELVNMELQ
How it was run: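 Binding signal here means per-feature fluorescence intensity in arbitrary units. The values were read on an Axon 4000B scanner after a custom Agilent array, double-stranded by primer extension with Cy5-dUTP, was incubated with 200 nM protein at 25 °C for 1 h in PBS with 2% BSA, salmon testes DNA and 50 µM zinc acetate, then washed. The proteins were transcription factors with an N-terminal polyhistidine tag and DsRed, expressed in E. coli BL21-CodonPlus and purified on Ni–NTA.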

Question: For “GAAGTTTCTAGAAGCTTATTCCAAGCTCCACGATGCCCTCCGGAGTCACCTAGTGCAG”, which binding signal is on record?
Answer: 3380 fluorescence intensity (a.u.)

Question: Which binding signal does the source give for “CGGGAGAGAGGATCGGGAGAGATAGGGTTAGGGTTAGGGTCGGAGTCACCTAGTGCAG” here?
Answer: 3320 fluorescence intensity (a.u.)

Question: With “AGCAGGTGACACGGCGGCGGCGTCTCGCCGGCGTGGAGTGCGGAGTCACCTAGTGCAG” as the sequence, how does the binding signal read?
Answer: 3810 fluorescence intensity (a.u.)

Question: Which binding signal does the source give for “GTCACGTACGTGCAGACCATGACCTGCTCTCCCAACATTTCGGAGTCACCTAGTGCAG” here?
Answer: 28900 fluorescence intensity (a.u.)

Question: With “TGCTGATTGGCGCTCCCCACGTTGGCAAGATTAGGTGATCCGGAGTCACCTAGTGCAG” as the sequence, how does the binding signal read?
Answer: 4620 fluorescence intensity (a.u.)

Question: How did the binding signal turn out when “CTAGCGAAAATCTAAAATGGCCGCCACGAAAGATGGTTTTCGGAGTCACCTAGTGCAG” was run?
Answer: 3410 fluorescence intensity (a.u.)

Question: How did the binding signal turn out when “TTTGGGACCTTTAGCTATCGCAGGAAAGAACCGTCGACACCGGAGTCACCTAGTGCAG” was run?
Answer: 27100 fluorescence intensity (a.u.)

Question: How did the binding signal turn out when “GAGCGTGGACACGACTACGCCACGTCGGATAGCACATCATCGGAGTCACCTAGTGCAG” was run?
Answer: 14600 fluorescence intensity (a.u.)

Question: “GGTTTTAACTTAGGTGGCGGCTGAGTCAGCGTGGGACCCACGGAGTCACCTAGTGCAG” was tested. Which binding signal did it give?
Answer: 11600 fluorescence intensity (a.u.)

Question: How did the binding signal turn out when “ACTGCTTACTCTTAATCTTTATACACGCCATTTAGAGGCACGGAGTCACCTAGTGCAG” was run?
Answer: 3640 fluorescence intensity (a.u.)

Question: How did the binding signal turn out when “GGGCGTTGCGGCCGTCACACGTGGTATGGGAGGGCGCCGCCGGAGTCACCTAGTGCAG” was run?
Answer: 5820 fluorescence intensity (a.u.)

Question: “ACGCGCCGATTCCGAAGAAATCAATCAACCAACTACTAGGCGGAGTCACCTAGTGCAG” was tested. Which binding signal did it give?
Answer: 19200 fluorescence intensity (a.u.)

Question: How did the binding signal turn out when “AGCTTACGTTATTCTTGATCCCTTCCTAAATTATCTGGCGCGGAGTCACCTAGTGCAG” was run?
Answer: 19100 fluorescence intensity (a.u.)

Question: For “GCGCGGCGCGTGACGGCGGTCATCGGTCAAAGACACGAACCGGAGTCACCTAGTGCAG”, which binding signal is on record?
Answer: 3140 fluorescence intensity (a.u.)

Question: With “GTGAGACACCCAAAGATCGTGTATTTGTTTGTAGACACGGCGGAGTCACCTAGTGCAG” as the sequence, how does the binding signal read?
Answer: 3150 fluorescence intensity (a.u.)

Question: “AAGCACGTATCCCCACTTCACGATGATTGGGCAAAGTCTTCGGAGTCACCTAGTGCAG” was tested. Which binding signal did it give?
Answer: 3930 fluorescence intensity (a.u.)

Question: With “TCGATCTGTTTCGCTTTGCTTCCGTCAGCCACCGAATTTGCGGAGTCACCTAGTGCAG” as the sequence, how does the binding signal read?
Answer: 4570 fluorescence intensity (a.u.)

Question: “AGTACTCTTCACTGTCTCCATGGAAGTTGTAGGCCTGTTGCGGAGTCACCTAGTGCAG” was tested. Which binding signal did it give?
Answer: 3320 fluorescence intensity (a.u.)

Question: For “CATAGATAAAAGAGTAAAACATCTTACTGCCAGCTTCACCCGGAGTCACCTAGTGCAG”, which binding signal is on record?
Answer: 21200 fluorescence intensity (a.u.)

Question: With “ATAATCCCCGACACATAAGCACTCATAGAGTACTACAAACCGGAGTCACCTAGTGCAG” as the sequence, how does the binding signal read?
Answer: 3920 fluorescence intensity (a.u.)

Question: “TCGGTGTTTCCAGTTTCCATCAACCGTAAGCGTGTCATTCCGGAGTCACCTAGTGCAG” was tested. Which binding signal did it give?
Answer: 4000 fluorescence intensity (a.u.)

Question: “GTTCTTTCTCCTGCCTAGCTAGCTACTCCCAGTTGTTTGCCGGAGTCACCTAGTGCAG” was tested. Which binding signal did it give?
Answer: 26600 fluorescence intensity (a.u.)

Question: How did the binding signal turn out when “CGGATCCCCGATCGGACGGTCCACGTTGCCCCGTCGCCCTCGGAGTCACCTAGTGCAG” was run?
Answer: 7610 fluorescence intensity (a.u.)
